Results from paper PMC5429807.
For at least one entry, the source does not settle the construct or the ends of the probe. For some assays here: A negative result means that nothing was seen under these conditions. For some assays here: The comparison behind a weaker result is the experiment's own reference, which may not be listed here. For some assays here: At least one verdict was read from the data and is not stated in words by the source.

Chains of the proteins cited; added tags and fusions are not shown. Lines headed by an entry give the natural chain unless they say otherwise; changes in a name come on top.
UniProt C1DLQ2: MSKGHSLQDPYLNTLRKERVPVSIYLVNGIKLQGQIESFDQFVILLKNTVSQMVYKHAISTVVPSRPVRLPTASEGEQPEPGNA

How the values were obtained:
Experiment in all cases: EMSA
Hfq-His = Hfq-His (UniProt C1DLQ2); conditions: RNA EMSA as in a cited protocol (ref. 13), excess tRNA, non-denaturing polyacrylamide gel, recombinant protein
Hfq-His + Crc = conditions: RNA EMSA as in a cited protocol (ref. 13), excess tRNA, non-denaturing polyacrylamide gel, recombinant protein, protein details: C-terminal His6,none (intein removed)
[1] = target: Crc (Azotobacter vinelandii AEIV) (UniProt C1DI50); conditions: excess tRNA, Crc alone, even at high concentrations, RNA EMSA as in a cited protocol (ref. 13), non-denaturing polyacrylamide gel, recombinant protein, label: 32P (radioactive), probe letters rebuilt from the primers and the genome, part of a longer molecule

Sequence: AAGCAACAAUCACAACAAGAGGAAAU [gluP A-rich RNA oligo]
- binding result (Hfq-His; Hfq alone, weak complex dissociating during electrophoresis, protein details: C-terminal His6, label: 5'-32P): binds more weakly

Sequence: CAUCCAGAACAACAAACCGGCCACUU [eda-1 A-rich RNA oligo]
- binding result (Hfq-His + Crc; Hfq plus Crc, label: 5'-32P): binds

Sequence: UUCGUACAACAACAAUAACAAGACGUACCACCCACAAUAAGAACGACGACACGACUCCAGCCUAACAAGAACAACGACGCGGAGACGGAGCCAACCGAUUUUUUUGGAGUAGGCGCAUGCCCGCCGGGCGAAGCCCGCAGCCAGACCGAGAACAACAAAACUGCCACGAAGCAGCACCCGAACUGGUAGGUCCGCAGGACCCUAGGCAAUAUCUGCAACCAAAGAAAUCCGUUUGCUAUUGGCUCCCCAUUGGGGGCCAUCCCGGAGCCAAGGAGCCAACCGGGACGGGCGCACAACAAGAACAACAAGCCCGGAGCAGAACAAGAACAACGCACGCACCUCGAUUUGAAAGGGAGCUUCGGCUCCCUUUCUGCGUUCGA [CrcZ sRNA]
- binding result [1]: no binding
- binding result (Hfq-His; stable complex at Hfq as low as 0.02 uM, protein details: C-terminal His6, label: 32P (radioactive), probe letters rebuilt from the primers and the genome, part of a longer molecule): binds
- binding result (Hfq-His + Crc; Hfq 0.2 or 0.05 uM plus Crc, tripartite complex suggested, BSA has no such effect, label: 32P (radioactive), probe letters rebuilt from the primers and the genome, part of a longer molecule): binds
